Test results: doi:10.1101/2025.07.28.25332029

Key:
CIDEA (human) = biological target: T1, CIDEA (human) (UniProt O60543); experiment: co-IP
T1 sequence: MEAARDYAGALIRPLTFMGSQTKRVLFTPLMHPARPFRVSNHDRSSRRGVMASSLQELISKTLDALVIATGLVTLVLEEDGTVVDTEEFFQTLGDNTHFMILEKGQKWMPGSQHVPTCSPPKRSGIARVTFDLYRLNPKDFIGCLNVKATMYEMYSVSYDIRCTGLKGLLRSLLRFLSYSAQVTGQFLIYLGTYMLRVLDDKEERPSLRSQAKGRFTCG

[1] = biological target: T2, CIDEC short isoform (CIDEC-S) (human) (UniProt Q96AQ7); experiment: co-IP
T2 sequence: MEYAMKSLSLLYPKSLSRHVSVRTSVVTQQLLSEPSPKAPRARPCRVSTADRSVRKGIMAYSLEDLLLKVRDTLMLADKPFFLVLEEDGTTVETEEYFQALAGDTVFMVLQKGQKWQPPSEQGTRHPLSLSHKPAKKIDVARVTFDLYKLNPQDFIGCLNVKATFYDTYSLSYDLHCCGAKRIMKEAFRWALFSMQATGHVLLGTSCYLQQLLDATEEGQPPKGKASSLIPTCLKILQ

“CIDEC long isoform (CIDEC-L), wild type (from UniProt A0A0A0MRY9)” was tested, and the binding (CIDEA (human)) was “binds” and the binding [1] was “binds”.

Results are given in words; binding and its absence hold for the method and conditions named. In cells and extracts the contact can be indirect. Binding can be weak; no strength is given.
